# According to PubChem BioAssay AID2551 (National Center for Advancing Translational Sciences (NCATS), 2010):
# Amino acid sequences for entries named in this document (tags omitted). A change or cut given only in a name is not applied to a line headed by its entry.
# UniProt P51450: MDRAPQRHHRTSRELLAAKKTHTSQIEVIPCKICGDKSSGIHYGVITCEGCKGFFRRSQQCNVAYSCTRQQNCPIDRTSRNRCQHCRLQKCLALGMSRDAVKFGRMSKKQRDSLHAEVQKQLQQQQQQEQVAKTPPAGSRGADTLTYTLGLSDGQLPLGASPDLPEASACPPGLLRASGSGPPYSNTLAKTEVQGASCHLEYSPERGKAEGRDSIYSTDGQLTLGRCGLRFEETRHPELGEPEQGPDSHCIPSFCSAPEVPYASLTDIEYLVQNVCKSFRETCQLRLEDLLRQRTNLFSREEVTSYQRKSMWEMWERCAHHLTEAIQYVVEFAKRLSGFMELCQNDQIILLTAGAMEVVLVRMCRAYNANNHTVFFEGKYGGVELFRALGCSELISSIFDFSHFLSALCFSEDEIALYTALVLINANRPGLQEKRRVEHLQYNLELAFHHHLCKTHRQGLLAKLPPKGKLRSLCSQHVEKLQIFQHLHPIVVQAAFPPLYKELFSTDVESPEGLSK
# Among all 310,000 compounds or so, about 17,000 (5.5%) were called active. Inconclusive results, whose numbers are uncertain, are shown with a selection of clear calls. Calls come from the whole dose curve; as a rule, active = well fitted inhibition curve with a large enough effect; inconclusive = small, poorly fitted or top-dose-only effect, or effect the other way; inactive = no such curve, though single readings can be large or run the other way. A potency beside an inconclusive call is a rough fit, not a confirmed value.
# Molecular target: Nuclear receptor ROR-gamma (Mus musculus) (UniProt P51450)
# Assay: qHTS for inhibitors of ROR gamma transcriptional activity; note: nearly all actives have a fitted effect of over 60% in size
# Conditions: Drosophila S2 Gal4-RORgamma UAS-luciferase reporter, 20 h; series mostly up to 53.6 µM
# Outline: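 A Gal4/UAS one-hybrid system in insect cells: metallothionein-promoter Gal4–ROR gamma fusion plus Photinus luciferase reporter. Copper sulfate 700 uM final, 20 hr ambient incubation, luminescent detection after 10 min with reagent.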
# Potency is the fitted concentration of half-maximal effect.
row,SMILES,Potency
1,O=C(CCc1nc2ccccc2[nH]c1=O)OCC(=O)c1cccc2ccccc12,"inconclusive: 35.5 µM [activator, single point]"
2,CCCOc1cccc(C2C(C(=O)c3ccc(C)o3)=C(O)C(=O)N2c2nc(C)c(C(C)=O)s2)c1 (centres undefined),active: 14.1 µM
3,Cc1ccc(/C=N/NC(=O)CN2CCN(S(=O)(=O)c3ccc(Br)cc3)CC2)s1,"inconclusive: 22.4 µM [inhibitor, single point]"
4,COc1cc2nc(CSc3ncn[nH]3)[nH]c(=O)c2cc1OC,inactive
5,O=C1OC(c2ccco2)=N/C1=C\c1ccc(-c2cccc(C(F)(F)F)c2)o1,inactive
6,CCN(CC)S(=O)(=O)N1CCC(C(=O)NC(C)CCc2ccccc2)CC1 (centres undefined),"inconclusive: 15.8 µM [activator, single point]"
7,O=C(NCCc1ccc2c(c1)OCCO2)c1cccc(F)c1,"inconclusive: 12.6 µM [activator, partial curve]"
8,CC1=C(C(=O)OCC2CCCO2)C(c2ccc(C)o2)C2=C(CC(c3ccc(N(C)C)cc3)CC2=O)N1 (centres undefined),"inconclusive: 11.2 µM [activator, single point]"
9,COc1ccc(OC)c(-c2csc(N(CC3CCCO3)C(=O)C3CCCCC3)n2)c1 (centres undefined),inactive
10,O=C(NC(=S)NC1CCCCCC1)c1cncc(Br)c1,active: 3.55 µM
11,COc1cc(CNc2ccc(CNc3ncn[nH]3)cc2)ccc1OCc1ccccc1,"inconclusive: 35.5 µM [activator, single point]"
12,Cc1ccc(N(Cc2cc3ccccc3[nH]c2=O)S(=O)(=O)c2ccccc2)cc1,inactive
13,Cc1cc(C)n(C(=O)Cn2nc([N+](=O)[O-])cc2C)n1,"inconclusive: 0.112 µM [inhibitor, full curve, poor fit]"
14,CC(C)(C)n1ncc2c(=O)n(CC(=O)Nc3ccccc3)cnc21,"inconclusive: 14.1 µM [activator, single point]"
15,Cc1cc(C)cc(NC(=S)NCc2ccncc2)c1,"inconclusive: 22.4 µM [inhibitor, single point]"
16,O=C(CCc1ccccc1)NCc1ccc2c(c1)OCO2,"inconclusive: 1 µM [inhibitor, full curve, poor fit]"
17,CCC(C)n1c(NC(=O)c2ccccc2)c(C#N)c2nc3ccccc3nc21 (centres undefined),active: 10 µM
18,O=C(C1CC(c2cccc(Br)c2)=NO1)N1CCc2ccccc2C1 (centres undefined),"inconclusive: 12.6 µM [activator, partial curve]"
19,Cn1cc(C2=C(c3cn(CCCSC(=N)N)c4ccccc34)C(=O)NC2=O)c2ccccc21,"inconclusive: 35.5 µM [inhibitor, single point]"

# 2 records drawn at random from those above, as already listed:
row,SMILES,Potency
13,Cc1cc(C)n(C(=O)Cn2nc([N+](=O)[O-])cc2C)n1,"inconclusive: 0.112 µM [inhibitor, full curve, poor fit]"
14,CC(C)(C)n1ncc2c(=O)n(CC(=O)Nc3ccccc3)cnc21,"inconclusive: 14.1 µM [activator, single point]"
